Experimental data taken from the supplement of paper PMC4604168 (melanoma cell lines).
The list shows a part of the results. Many values rest on one well or one pass, so single values are uncertain.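 The apoptosis fraction was the count of cleaved-PARP antibody-stained nuclei relative to all DNA-stained nuclei, imaged in 1,536-well plates. Screening doses were set so most cells survived, and baseline and induced cleaved-PARP levels vary greatly across cell lines.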

How the values were obtained:
Assay in all cases: cleaved PARP positive nuclei fraction relative to DMSO control; melanoma cells; higher = more apoptosis
Conditions in all cases: library dose: low library concentration; 72 h
501Mel = system: 501Mel
A101D = system: A101D
A2058 = system: A2058
A375 = system: A375
C32 = system: C32
CBRC008 = system: CBRC008 (line from a melanoma biopsy)
CBRC014 = system: CBRC014 (line from a melanoma biopsy)
CBRC016 = system: CBRC016 (line from a melanoma biopsy)
CBRC017 = system: CBRC017 (line from a melanoma biopsy)
CBRC034 = system: CBRC034 (line from a melanoma biopsy)
COLO792 = system: COLO792
COLO800 = system: COLO800
COLO829 = system: COLO829
G361 = system: G361
IPC-298 = system: IPC-298
IST-MEL1 = system: IST-MEL1
LB2518-MEL = system: LB2518-MEL
LOXIMVI = system: LOXIMVI
MEL-HO = system: MEL-HO

Row | Structure (SMILES) | cleaved PARP positive nuclei fraction (501Mel) [%] | cleaved PARP positive nuclei fraction (A101D) [%] | cleaved PARP positive nuclei fraction (A2058) [%] | cleaved PARP positive nuclei fraction (A375) [%] | cleaved PARP positive nuclei fraction (C32) [%] | cleaved PARP positive nuclei fraction (CBRC008) [%] | cleaved PARP positive nuclei fraction (CBRC014) [%] | cleaved PARP positive nuclei fraction (CBRC016) [%] | cleaved PARP positive nuclei fraction (CBRC017) [%] | cleaved PARP positive nuclei fraction (CBRC034) [%] | cleaved PARP positive nuclei fraction (COLO792) [%] | cleaved PARP positive nuclei fraction (COLO800) [%] | cleaved PARP positive nuclei fraction (COLO829) [%] | cleaved PARP positive nuclei fraction (G361) [%] | cleaved PARP positive nuclei fraction (IPC-298) [%] | cleaved PARP positive nuclei fraction (IST-MEL1) [%] | cleaved PARP positive nuclei fraction (LB2518-MEL) [%] | cleaved PARP positive nuclei fraction (LOXIMVI) [%] | cleaved PARP positive nuclei fraction (MEL-HO) [%]
1 | N#CC[C@H](C1CCCC1)n1cc(-c2ncnc3[nH]ccc23)cn1 [ruxolitinib] + Cn1c(Nc2ccc(C(F)(F)F)cc2)nc2cc(Oc3ccnc(-c4ncc(C(F)(F)F)[nH]4)c3)ccc21 [CHIR265] (first compound 1 µM, partner dose 0.08 µM) | 101 | 554 | 131 | 291 | 84.6 | 126 | 109 | 167 | 100 | 71.7 | 153 | 60.1 | 70.5 | 165 | 66.6 | 68.8 | 178 | 105 | 96.4
2 | Cc1ccc(Nc2nccc(N(C)c3ccc4c(C)n(C)nc4c3)n2)cc1S(N)(=O)=O [Pazopanib] + Cn1c(=O)n(-c2ccc(C(C)(C)C#N)cc2)c2c3cc(-c4cnc5ccccc5c4)ccc3ncc21 [NVP-BEZ235] (first compound 0.4 µM, partner dose 0.004 µM) | 83.4 | 59.4 | 42.5 | 21.8 | 75.3 | 80.5 | 104 | 142 | 119 | 79.1 | 123 | 110 | 53.3 | 185 | 116 | 143 | 334 | 33.2 | 33.5
3 | O=C(Nc1cc(C(F)(F)F)cc(C(F)(F)F)c1)c1cc(Cl)ccc1O + NC(=O)c1ccc(N(C(N)=O)c2c(F)cccc2F)nc1-c1ccc(F)cc1F [VX702] (first compound 0.016 µM, partner dose 0.4 µM) | 60 | 170 | 64.4 | 82.3 | 71.7 | 97.2 | 95.9 | 191 | 124 | 27.8 | 74.3 | 71.6 | 126 | 118 | 133 | 62.9 | 43.2 | 102 | 61.2
4 | CCCCCCCCCCCCCCCCCCOP(=O)([O-])OC1CC[N+](C)(C)CC1 [Perifosine] + CCCCCCCCc1ccc(CCC(N)(CO)CO)cc1 [fingolimod] (first compound 0.4 µM, partner dose 2 µM) | 106 | 43.3 | 83.4 | 245 | 84.1 | 23.7 | 92.3 | 97.5 | 193 | 74.3 | 26.4 | 119 | 39 | 109 | 86 | 33.4 | 51.1 | 63.9 | 57.2
5 | O=C(/C=C/c1cccnc1)NCCCCC1CCN(C(=O)c2ccccc2)CC1 + CS(=O)(=O)CCNCc1ccc(-c2ccc3ncnc(Nc4ccc(OCc5cccc(F)c5)c(Cl)c4)c3c2)o1 [lapatinib] (first compound 0.01 µM, partner dose 0.8 µM) | 119 | 99.8 | 215 | 32.5 | 75.4 | 2670 | 115 | 1670 | 634 | 895 | 535 | 144 | 228 | 3370 | 1130 | 65.2 | 344 | 116 | 363
6 | O=C(/C=C/c1cccnc1)NCCCCC1CCN(C(=O)c2ccccc2)CC1 + Cn1sc(=O)n(Cc2ccccc2)c1=O [TDZD-8] (first compound 0.01 µM, partner dose 0.4 µM) | 115 | 84 | 136 | 181 | 83.9 | 4150 | 88.3 | 1880 | 660 | 2140 | 400 | 358 | 256 | 3080 | 210 | 86 | 299 | 95.6 | 84.1
7 | N#CC[C@H](C1CCCC1)n1cc(-c2ncnc3[nH]ccc23)cn1 [ruxolitinib] + O=C(/C=C/c1cccnc1)NCCCCC1CCN(C(=O)c2ccccc2)CC1 [FK866] (first compound 1 µM, partner dose 0.01 µM) | 98.9 | 124 | 58.4 | 55.3 | 70.5 | 1980 | 287 | 238 | 311 | 1640 | 188 | 67.7 | 110 | 2490 | 381 | 128 | 118 | 16.6 | 306
8 | O=C(/C=C/c1cccnc1)NCCCCC1CCN(C(=O)c2ccccc2)CC1 + Cc1cn(-c2cc(NC(=O)c3ccc(C)c(Nc4nccc(-c5cccnc5)n4)c3)cc(C(F)(F)F)c2)cn1 [nilotinib] (first compound 0.01 µM, partner dose 0.2 µM) | 101 | 64.1 | 193 | 119 | 84.3 | 6100 | 116 | 705 | 2080 | 2230 | 409 | 181 | 234 | 7370 | 376 | 193 | 275 | 212 | 150
9 | O=C(/C=C/c1cccnc1)NCCCCC1CCN(C(=O)c2ccccc2)CC1 + Nc1cccc2c1CN(C1CCC(=O)NC1=O)C2=O [lenalidomide] (first compound 0.01 µM, partner dose 1 µM) | 106 | 91.1 | 147 | 319 | 87.4 | 5610 | 111 | 971 | 386 | 1010 | 689 | 445 | 344 | 2070 | 294 | 122 | 121 | 160 | 255
10 | O=C(Nc1cc(C(F)(F)F)cc(C(F)(F)F)c1)c1cc(Cl)ccc1O + C#Cc1cccc(Nc2ncnc3cc(OCCOC)c(OCCOC)cc23)c1 [erlotinib] (first compound 0.016 µM, partner dose 0.8 µM) | 139 | 32 | 157 | 176 | 159 | 383 | 85.1 | 155 | 257 | 151 | 121 | 12.2 | 129 | 151 | 29.2 | 64.4 | 64.6 | 57.9 | 38.7
11 | CC[C@]1(O)C[C@H]2CN(CCc3c([nH]c4ccccc34)[C@@](C(=O)OC)(c3cc4c(cc3OC)N(C=O)[C@H]3[C@@](O)(C(=O)OC)[C@H](OC(C)=O)[C@]5(CC)C=CCN6CC[C@]43[C@@H]65)C2)C1 [vincristine] + Cc1cn(-c2cc(NC(=O)c3ccc(C)c(Nc4nccc(-c5cccnc5)n4)c3)cc(C(F)(F)F)c2)cn1 [nilotinib] (first compound 0.0001 µM, partner dose 0.2 µM) | 173 | 195 | 1360 | 330 | 96.5 | 395 | 116 | 264 | 124 | 67.5 | 34.4 | 84.8 | 56.7 | 115 | 44.3 | 70.6 | 232 | 248 | 167
12 | Cc1ccc(Nc2nccc(N(C)c3ccc4c(C)n(C)nc4c3)n2)cc1S(N)(=O)=O [Pazopanib] + OCc1c[nH]c2ccccc12 [Indole-3-carbinol] (first compound 0.4 µM, partner dose 0.8 µM) | 164 | 133 | 62 | 179 | 65.9 | 126 | 120 | 26.7 | 104 | 74.1 | 51.7 | 56 | 110 | 148 | 66.2 | 33.8 | 49.3 | 85.5 | 129
13 | CC[C@]1(O)C[C@H]2CN(CCc3c([nH]c4ccccc34)[C@@](C(=O)OC)(c3cc4c(cc3OC)N(C=O)[C@H]3[C@@](O)(C(=O)OC)[C@H](OC(C)=O)[C@]5(CC)C=CCN6CC[C@]43[C@@H]65)C2)C1 [vincristine] + C[C@@H](N)c1ccc(C(=O)Nc2ccnc3[nH]ccc23)cc1 [RKI983] (first compound 0.0001 µM, partner dose 0.4 µM) | 169 | 259 | 4840 | 702 | 172 | 158 | 87.4 | 193 | 198 | 71.3 | 93.1 | 85.4 | 101 | 151 | 42.3 | 134 | 59.7 | 421 | 111

Pulled one by one from the list above:
Row | Structure (SMILES) | cleaved PARP positive nuclei fraction (501Mel) [%] | cleaved PARP positive nuclei fraction (A101D) [%] | cleaved PARP positive nuclei fraction (A2058) [%] | cleaved PARP positive nuclei fraction (A375) [%] | cleaved PARP positive nuclei fraction (C32) [%] | cleaved PARP positive nuclei fraction (CBRC008) [%] | cleaved PARP positive nuclei fraction (CBRC014) [%] | cleaved PARP positive nuclei fraction (CBRC016) [%] | cleaved PARP positive nuclei fraction (CBRC017) [%] | cleaved PARP positive nuclei fraction (CBRC034) [%] | cleaved PARP positive nuclei fraction (COLO792) [%] | cleaved PARP positive nuclei fraction (COLO800) [%] | cleaved PARP positive nuclei fraction (COLO829) [%] | cleaved PARP positive nuclei fraction (G361) [%] | cleaved PARP positive nuclei fraction (IPC-298) [%] | cleaved PARP positive nuclei fraction (IST-MEL1) [%] | cleaved PARP positive nuclei fraction (LB2518-MEL) [%] | cleaved PARP positive nuclei fraction (LOXIMVI) [%] | cleaved PARP positive nuclei fraction (MEL-HO) [%]
8 | O=C(/C=C/c1cccnc1)NCCCCC1CCN(C(=O)c2ccccc2)CC1 + Cc1cn(-c2cc(NC(=O)c3ccc(C)c(Nc4nccc(-c5cccnc5)n4)c3)cc(C(F)(F)F)c2)cn1 [nilotinib] (first compound 0.01 µM, partner dose 0.2 µM) | 101 | 64.1 | 193 | 119 | 84.3 | 6100 | 116 | 705 | 2080 | 2230 | 409 | 181 | 234 | 7370 | 376 | 193 | 275 | 212 | 150
6 | O=C(/C=C/c1cccnc1)NCCCCC1CCN(C(=O)c2ccccc2)CC1 + Cn1sc(=O)n(Cc2ccccc2)c1=O [TDZD-8] (first compound 0.01 µM, partner dose 0.4 µM) | 115 | 84 | 136 | 181 | 83.9 | 4150 | 88.3 | 1880 | 660 | 2140 | 400 | 358 | 256 | 3080 | 210 | 86 | 299 | 95.6 | 84.1
